Assay results from patent publication US20220235136A1, “METHODS AND COMPOSITIONS FOR TREATING A DISEASE OR DISORDER” (YALE UNIVERSITY, priority 2019, published 2022).
No constants are given. Whether binding was seen depends on the method and setting. Binding seen in cells or lysates may run through a third protein. Some binding calls cover weakened binding; strength is not graded here.

By UniProt entry, the sequences of proteins in these tests, tags left out. Where a name states a change or a piece, a line headed by the entry shows the natural chain unless it says otherwise.
UniProt Q9NPY3: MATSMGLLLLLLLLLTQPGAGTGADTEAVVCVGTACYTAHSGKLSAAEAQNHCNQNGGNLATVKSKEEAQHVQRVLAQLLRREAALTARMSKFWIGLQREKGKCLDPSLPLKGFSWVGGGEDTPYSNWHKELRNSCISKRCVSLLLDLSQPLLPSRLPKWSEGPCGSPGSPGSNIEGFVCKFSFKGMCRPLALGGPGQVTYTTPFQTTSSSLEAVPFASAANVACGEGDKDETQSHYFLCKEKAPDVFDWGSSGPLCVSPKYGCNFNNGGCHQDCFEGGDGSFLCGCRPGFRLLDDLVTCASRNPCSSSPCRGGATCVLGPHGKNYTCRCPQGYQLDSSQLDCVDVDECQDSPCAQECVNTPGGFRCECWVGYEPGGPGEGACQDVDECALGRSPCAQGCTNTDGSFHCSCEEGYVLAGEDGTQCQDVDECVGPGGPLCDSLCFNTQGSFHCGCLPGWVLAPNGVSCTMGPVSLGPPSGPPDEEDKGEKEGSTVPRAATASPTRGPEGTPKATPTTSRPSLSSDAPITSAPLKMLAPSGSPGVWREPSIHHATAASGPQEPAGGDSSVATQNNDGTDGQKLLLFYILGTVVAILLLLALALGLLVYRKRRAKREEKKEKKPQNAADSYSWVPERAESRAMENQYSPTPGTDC

Tests used:
[1] = target: human CD93 on cells (CD93-transfected HEK293T cells; endogenous on HUVEC cells) (human) (UniProt Q9NPY3); assay: co-immunoprecipitation from HUVEC lysate with a CD93 mAb, blot (FIG. 4D)
[2] = target: human CD93 on cells (CD93-transfected HEK293T cells; endogenous on HUVEC cells) (human) (UniProt Q9NPY3); assay: co-immunoprecipitation from HUVEC cell lysate with CD93 mAb, blot for IGFBP7

binding [1]: binds
binding [2]: binds
B1: human IGFBP7 (expression construct in the GSRA library; endogenous in HUVEC lysate; exogenous IGFBP7 protein) (ligand)
chain: SSSDTCGPCEPASCPPLPPLGCLLGETRDACGCCPMCARGEGEPCGGGGAGRGYCAPGMECVKSRKRRKGKAGAAAGGPGVSGVCVCKSRYPVCGSDGTTYPSGCQLRAASQRAESRGEKAITQVSKGTCEQGPSIVTPPKDIWNVTGAQVYLSCEVIGIPTPVLIWNKVKRGHYGVQRTELLPGDRDNLAIQTRGGPEKHEVTGWVLVSPLSKEDAGEYECHASNSQGQASASAKITVVDALHEIPVKKGEGAEL
